Assay results published in paper PMC4741719, “Acquisition of a single EZH2 D1 domain mutation confers acquired resistance to EZH2-targeted inhibitors” (Oncotarget, 2015).
Read-outs that look alike come from different tables or passages of the source.

Legend:
[1] = system: Pfeiffer cells (Parental); assay: Viability assay (Cell-Titer-Glo, 6 days), parental Pfeiffer cells; format: cell-based; conditions: Homo sapiens
[2] = system: H3K27me3 in Pfeiffer cells (Parental); assay: Cellular H3K27me3 AlphaLISA, parental Pfeiffer cells; format: cell-based; conditions: Homo sapiens, Figure 3B
Experimental: Cells were plated at 500 cells/well in 10% DMEM, 50 uL/well in 384 well plates. […] DMSO (0.1%) was used as a vehicle control. Plates were incubated for 72 hours at 37°C. […] Plates were read using AlphaLISA protocol on Envision (Perkin Elmer).

G401 cells (Parental) = assay: cells; conditions: Homo sapiens, G-401, read-out: IC50 cell viability
E-200 Pfeiffer cells = assay: Viability assay, EPZ-6438-resistant E-200 Pfeiffer cells; format: cell-based; conditions: Homo sapiens, read-out: IC50 cell viability
E-100 Pfeiffer cells = assay: Viability assay, EPZ-6438-resistant E-100 Pfeiffer cells; format: cell-based; conditions: Homo sapiens, read-out: IC50 cell viability
[3] = system: H3K27me3 in E-200 Pfeiffer cells; assay: Cellular H3K27me3 AlphaLISA, E-200 Pfeiffer cells; format: cell-based; conditions: Homo sapiens; Pfeiffer E-200; Figure 3B
Experimental: Cells were plated at 500 cells/well in 10% DMEM, 50 uL/well in 384 well plates. […] DMSO (0.1%) was used as a vehicle control. Plates were incubated for 72 hours at 37°C. […] Plates were read using AlphaLISA protocol on Envision (Perkin Elmer). […] Pfeiffer cells were treated overnight with 100 μg/mL of N-ethyl-N-nitrosourea (ENU; Sigma Aldrich, St. […] After 7 days, cells were dosed again with fresh compound and grown until outgrowth (3 to 4 weeks). EZH2 cDNA from outgrown cells was amplified by RT-PCR using Transcriptor High Fidelity cDNA Synthesis Kit (Roche, 05081955001) and submitted for NGS. Ion semiconductor sequencing (Ion Torrent) and single molecule real time sequencing (PacBio) were performed at Molecular MD and Expression analysis (Quintiles), respectively.

SMILES: CCN(c1cc(-c2ccc(CN3CCOCC3)cc2)cc(C(=O)NCc2c(C)cc(C)[nH]c2=O)c1C)C1CCOCC1 [EPZ-6438]
- IC50 ([1]; Parental Pfeiffer, Figure 1C, three independent experiments): 7 ± 1 nM
- IC50 ([1]; Pfeiffer Parental, Figure 4B): 9 ± 3 nM
- IC50 [2]: 11 ± 3 nM
- IC50 (G401 cells (Parental)): 1030 ± 172 nM
- IC50 (E-200 Pfeiffer cells; E-200, Unwash, Figure 1E): > 10000 nM
- IC50 (E-200 Pfeiffer cells; E-200, Wash 8 weeks (drug withdrawal), Figure 1E): > 10000 nM
- IC50 (E-200 Pfeiffer cells; E-200 Pfeiffer, Figure 1C): > 10000 nM
- IC50 (E-100 Pfeiffer cells; E-100, Unwash, Figure 1E): > 10000 nM
- IC50 (E-100 Pfeiffer cells; E-100, Wash 8 weeks (drug withdrawal), Figure 1E): > 10000 nM
- IC50 (E-100 Pfeiffer cells; E-100 Pfeiffer, Figure 1C): > 10000 nM
- IC50 [3]: > 10000 nM
